Assay results: article doi:10.1101/2024.04.25.591189

Columns and labels:
Test in all cases: co-IP
[1] = target: Mei5-W96A (S. cerevisiae)
[2] = target: Mei5-R97L (S. cerevisiae)
[3] = target: Mei5-K95L (S. cerevisiae)

B1: Sae3-Flag (protein, UniProt P89114 1-91)
chain: MNYLETQLNKKQKQIQEYESMNGNLIKMFEQLSKEKKNDETPKKISSTYIKELKEYNELRDAGLRLAQIIADEKQCKIKDVFEEIGYSMKD
- binding [1]: binds
- binding [2]: no binding
- binding [3]: binds

No constants are given. Whether binding was seen depends on the method and setting. In cells and extracts the contact can be indirect. For part of these data: Binding calls can cover weak binding; strength is not graded here. Where a sequence is shown, tags or fusion partners need not be part of it.
